This is one part of the list. These are further read-outs of the screen, such as a control signal, another cell line or another target. No call is given for them. Most of these compounds were active or inconclusive in the main read-out, so they are no random draw. Words in brackets tell the shape of the fitted curve; partial curves, single points and poor fits give uncertain potencies.
Assay: qHTS Assay for Identifying the Cell-Membrane Permeable IMPase Inhibitors
Conditions: CHO-M1 cells, IP1 accumulation, HTRF TR-FRET ratio; measured here: donor channel 620 nm AC50

SMILES	AC50
CCCn1nc2cc(C(=O)NC3CCc4ccccc43)ccc2c1OCC (stereo unspecified)	0.0251 µM [falling, partial curve, poor fit]
COC(=O)c1nnn(-c2nonc2N)c1CSc1nc2ccccc2s1	6.31 µM [rising, single point]
CCCCOC(=O)CCn1c(=S)oc2ccccc21	0.0224 µM [falling, full curve]
O=C(Cn1cnc2ccccc21)N/N=C/c1ccco1	12.6 µM [falling, partial curve]
CN1C(=O)CC(c2ccco2)Sc2ccccc21 (stereo unspecified)	3.16 µM [rising, partial curve, poor fit]
Cc1ccc(-c2[nH]c(-c3ccccc3)nc2SCC(=O)NCC2CCCO2)cc1 (stereo unspecified)	1.78 µM [falling, full curve, poor fit]
COCCOC(=O)C1=C(C)NC2=C(C(=O)CC(c3cccs3)C2)C1c1ccsc1 (stereo unspecified)	31.6 µM [falling, single point]
CN(Cc1ccccc1)C(=O)Nc1ccccc1	5.62 µM [rising, single point]
COc1ccc(N(CC(=O)N2CCc3ccccc32)S(=O)(=O)c2c(C)n[nH]c2C)cc1	0.794 µM [falling, full curve, poor fit]
Cc1ccc(SCc2[nH]nc3c2C2(C(=O)Nc4ccc([N+](=O)[O-])cc42)C(C#N)=C(N)O3)cc1 (stereo unspecified)	0.0794 µM [falling, full curve]
CC(=O)Nc1ccc(C(=O)Cn2nnc3ccccc3c2=O)cc1	25.1 µM [falling, single point]
Cc1ccc(Cl)cc1NC1=NC(=S)N(C(C)C)C12CCCCC2	0.631 µM [falling, partial curve, poor fit]
CNC(=O)c1cccn1-c1ccsc1C(=O)OC	6.31 µM [rising, full curve, poor fit]
Cc1ccc(Cl)cc1NC(=O)CC1NCCNC1=O (stereo unspecified)	3.16 µM [falling, partial curve]
COc1ccccc1CC(=O)NCc1ccc2c(c1)OCO2	3.16 µM [falling, single point]
COc1ccc2cc3cc(C(=O)N4CCN(Cc5ccc6c(c5)OCO6)CC4)oc3nc2c1	0.00501 µM [falling, full curve, poor fit]
COC(=O)c1cc(Cl)c(NS(=O)(=O)c2ccccc2)cc1OC	35.5 µM [falling, single point]
C=C(C)COc1ccc(-c2nc(N)nc(C)c2Oc2ccccc2OC)c(O)c1	3.98 µM [falling, partial curve, poor fit]
Cc1cccc(-c2nnc(SCC(=O)NCc3ccc4c(c3)OCO4)n2C)c1	2.51 µM [rising, full curve]
CCc1c(C)nc(N2CCOCC2)[nH]c1=O	1.26 µM [falling, single point]
CC(C)Oc1ccc(/C(O)=C2/C(=O)C(=O)N(Cc3cccnc3)C2c2ccco2)cc1 (stereo unspecified)	0.158 µM [falling, single point]

SMILES	AC50
O=C(CSc1nc(-c2ccc(F)cc2)[nH]c1-c1ccccc1)Nc1ccccc1	6.31 µM [falling, partial curve, poor fit]
COc1ccc(/C=N\NS(=O)(=O)c2ccc(Cl)cc2)cc1COc1ccccc1[N+](=O)[O-]	0.251 µM [falling, full curve, poor fit]
Cn1cnnc1SCC(=O)Nc1sccc1C#N	0.251 µM [falling, full curve]
COc1cccc(-c2nn(C)c3sc(C(=O)Nc4ccc5c(c4)OCCO5)cc23)c1	4.47 µM [falling, full curve]
COc1ccc(-n2c(C)cc(C(=O)Cn3c(NCCO)nc4ccccc43)c2C)cc1	0.01 µM [rising, full curve, poor fit]
C[C@@H]1O[C@@H](OC[C@H]2O[C@@H](Oc3c(-c4cccc(O)c4O)oc4cc(O)cc(O)c4c3=O)[C@H](O)[C@@H](O)[C@@H]2O)[C@H](O)[C@H](O)[C@H]1O	15.8 µM [falling, partial curve, poor fit]
COC(=O)CSc1nc(-c2ccccc2)c2c(c1C#N)CCCC2	31.6 µM [falling, single point]
CCN(CC)C(=O)c1cc(-c2ccc(Br)cc2)on1	6.31 µM [falling, full curve, poor fit]
O=C(CN1CCN(C(=O)c2cccc(F)c2)CC1)NC1CCCCC1	0.01 µM [falling, full curve, poor fit]
COc1ccccc1-n1c(C)nc2cc(C(=O)O)ccc21	10 µM [falling, partial curve, poor fit]
COC(=O)c1c(C(C)=O)cnc2ccc(Br)cc12	3.16 µM [rising, full curve, poor fit]
COc1ccc(OC)c(C2CC(=O)c3c([nH]c(C(=O)OCc4ccc(C)cc4)c3C)C2)c1 (stereo unspecified)	31.6 µM [rising, single point]
Cc1cccc(C(=O)O/N=C2\CCSc3ccc(C)cc32)c1	10 µM [falling, partial curve]
Cc1nc2cc(NC(=O)NCc3ccco3)ccc2o1	2.24 µM [rising, full curve]
CCC(=O)Nc1ccc(-c2cc(-c3ccccc3)nc(-c3ccc(NC(=O)CC)cc3)n2)cc1	0.02 µM [falling, full curve]
O=C(NCc1ccco1)c1sc2cc(Cl)ccc2c1Cl	0.00501 µM [falling, full curve, poor fit]
CSc1nc2c(c(=O)[nH]c(=O)n2C)n1C/C=C(\C)Cl	0.0251 µM [falling, full curve, poor fit]
CCOc1ccc(C(=O)Nc2ccc(NC(=O)c3ccco3)c(Cl)c2)cc1Br	31.6 µM [rising, single point]
Cc1ccc(-n2c(=O)cc(N3CCN(Cc4ccccc4)CC3)[nH]c2=O)cc1	0.141 µM [falling, full curve]
Cc1ccc(O)c(NC(=O)c2cc3nc4c(c(C(F)(F)F)n3n2)CCc2ccccc2-4)c1	10 µM [falling, partial curve, poor fit]

Laid out differently: results already given
SMILES | AC50
COc1ccc(/C=N\NS(=O)(=O)c2ccc(Cl)cc2)cc1COc1ccccc1[N+](=O)[O-] | 0.251 µM [falling, full curve, poor fit]
Cn1cnnc1SCC(=O)Nc1sccc1C#N | 0.251 µM [falling, full curve]
COc1cccc(-c2nn(C)c3sc(C(=O)Nc4ccc5c(c4)OCCO5)cc23)c1 | 4.47 µM [falling, full curve]
C[C@@H]1O[C@@H](OC[C@H]2O[C@@H](Oc3c(-c4cccc(O)c4O)oc4cc(O)cc(O)c4c3=O)[C@H](O)[C@@H](O)[C@@H]2O)[C@H](O)[C@H](O)[C@H]1O | 15.8 µM [falling, partial curve, poor fit]
COC(=O)CSc1nc(-c2ccccc2)c2c(c1C#N)CCCC2 | 31.6 µM [falling, single point]
CCN(CC)C(=O)c1cc(-c2ccc(Br)cc2)on1 | 6.31 µM [falling, full curve, poor fit]
COc1ccccc1-n1c(C)nc2cc(C(=O)O)ccc21 | 10 µM [falling, partial curve, poor fit]
COC(=O)c1c(C(C)=O)cnc2ccc(Br)cc12 | 3.16 µM [rising, full curve, poor fit]
COc1ccc(OC)c(C2CC(=O)c3c([nH]c(C(=O)OCc4ccc(C)cc4)c3C)C2)c1 (stereo unspecified) | 31.6 µM [rising, single point]
Cc1cccc(C(=O)O/N=C2\CCSc3ccc(C)cc32)c1 | 10 µM [falling, partial curve]
CSc1nc2c(c(=O)[nH]c(=O)n2C)n1C/C=C(\C)Cl | 0.0251 µM [falling, full curve, poor fit]
